Measured values taken from PMC9869517.
Results are given in words; binding and its absence hold for the method and conditions named. In cells and extracts the contact can be indirect. Some entries that bind do so weakly or less than the wild type.

Chains of the proteins cited; added tags and fusions are not shown.
UniProt P62835: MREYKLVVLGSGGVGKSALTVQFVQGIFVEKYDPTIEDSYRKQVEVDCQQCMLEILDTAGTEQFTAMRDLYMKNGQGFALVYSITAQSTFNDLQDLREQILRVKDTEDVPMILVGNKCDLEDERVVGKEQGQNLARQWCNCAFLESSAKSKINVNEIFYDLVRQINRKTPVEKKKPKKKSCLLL

Target: Rap1a (mouse (endogenous in primary mouse endometrial stromal cells)) (UniProt P62835)
Test: co-IP; lysates of ESCs plated on 1 kPa hydrogels; anti-Rap1a or normal IgG on Protein A + G magnetic beads, incubated with lysate overnight at 4 °C; washed three times with lysis buffer; western blot

binding: binds
B1: p190A RhoGAP (p190A), encoded by the ARHGAP35 gene (protein, UniProt Q91YM2 1-1499)
chain: MMMARKQDVRIPTYNISVVGLSGTEKEKGQCGIGKSCLCNRFVRPSADEFHLDHTSVLSTSDFGGRVVNNDHFLYWGEVSRSLEDCVECKMHIVEQTEFIDDQTFQPHRSTALQPYIKRAAATKLASAEKLMYFCTDQLGLEQDFEQKQMPDGKLLVDGFLLGIDVSRGMNRNFDDQLKFVSNLYNQLAKTKKPIVVVLTKCDEGVERYIRDAHTFALSKKNLQVVETSARSNVNVDLAFSTLVQLIDKSRGKTKIIPYFEALKQQSQQIATAKDKYEWLVSRIVKNHNENWPSVSRKMQASPEYQDYVYLEGTQKAKKLFLQHIHRLKHEHIERRRKLYLAALPLAFEALIPNLDEVDHLSCIKAKKLLETKPEFLKWFVVLEETPWDATSHIDNMENERIPFDLMDTVPAEQLYETHLEKLRNERKRAEMRRAFKENLETSPFITPGKPWEEARSFIMNEDFYQWLEESVYMDIYGKHQKQIIDRAKEEFQELLLEYSELFYELELDAKPSKEKMGVIQDVLGEEQRFKALQKLQAERDALILKHIHFVYHPTKETCPSCPACVDAKIEHLISSRFIRPSDRNQKNSLSDLNIDRINLVILGKDGLARELANEIRALCTNDDKYVIDGKMYELSLRPIEGNVRLPVNSFQTPTFQPHGCLCLYNSKESLSYVVESIEKSRESTLGRRDNHLVHLPLTLILVNKRGDTSGETLHSLIQQGQQIASKLQCVFLDPASAGIGYGRNINEKQISQVLKGLLDSKRNLNLVSSTASIKDLADVDLRIVMCLMCGDPFSADDVLSPVLQSQTCKSSHCGSSNSVLLELPIGLHKKRIELSVLSYHSSFSIRKSRLVHGYIVFYSAKRKASLAMLRAFLCEVQDIIPIQLVALTDGAIDVLDNDLSREQLTEGEEIAQEIDGRFTSIPCSQPQHKLELFHPFFKDVVEKKNIIEATHMYDNVAEACSTTEEVFNSPRAGSPLCNSNLQDSEEDVEPPSYHLFREDATLPSLSKDHSKFSMELEGNDGLSFIMSNFESKLNNKVPPPVKPKPPVHFDITKDLSYLDQGHREGQRKSMSSSPWMPQDGFDPSDYAEPMDAVVKPRNEEENIYSVPHDSTQGKIITIRNINKAQSNGSGNGSDSEMDTSSLERGRKVSAVSKPVLYRTRCTRLGRFASYRTSFSVGSDDELGPIRKKEEDQASQGYKGDNAVIPYETDEDPRRRNILRSLRRNTKKPKPKPRPSITKATWESNYFGVPLTTVVTPEKPIPIFIERCIEYIEATGLSTEGIYRVSGNKSEMESLQRQFDQDHNLDLAEKDFTVNTVAGAMKSFFSELPDPLVPYSMQIDLVEAHKINDREQKLHALKEVLKKFPKENHEVFKYVISHLNKVSHNNKVNLMTSENLSICFWPTLMRPDFSSMDALTATRSYQTIIELFIQQCPFFFYNRPISEPPGAAPGSPSAMAPTVPFLTSTPATSQPSPPQSPPPTPQSPMQPLLSSQLQAEHTL
